{"source": "paper PMC7256328", "binders": {"B1": {"name": "Fibrillarin (FBL), endogenous (protein, UniProt P35550 1-327)", "chain": "MKPGFSPRGGGFGGRGGFGDRGGRGGGRGGRGGFGGGRGGFGGGGRGRGGGGGGFRGRGGGGGRGGGFQSGGNRGRGGGRGGKRGNQSGKNVMVEPHRHEGVFICRGKEDALVTKNLVPGESVYGEKRVSISEGDDKIEYRAWNPFRSKLAAAILGGVDQIHIKPGAKVLYLGAASGTTVSHVSDIVGPDGLVYAVEFSHRSGRDLINLAKKRTNIIPVIEDARHPHKYRMLIAMVDVIFADVAQPDQTRIVALNAHTFLRNGGHFVISIKANCIDSTASAEAVFASEVKKMQQENMKPQEQLTLEPYERDHAVVVGVYRPPPKVKN"}}, "target": "T1, Nucleolar protein 58 (NOP58), endogenous (mouse (endogenous in liver)) (UniProt Q6DFW4)", "T1 sequence": "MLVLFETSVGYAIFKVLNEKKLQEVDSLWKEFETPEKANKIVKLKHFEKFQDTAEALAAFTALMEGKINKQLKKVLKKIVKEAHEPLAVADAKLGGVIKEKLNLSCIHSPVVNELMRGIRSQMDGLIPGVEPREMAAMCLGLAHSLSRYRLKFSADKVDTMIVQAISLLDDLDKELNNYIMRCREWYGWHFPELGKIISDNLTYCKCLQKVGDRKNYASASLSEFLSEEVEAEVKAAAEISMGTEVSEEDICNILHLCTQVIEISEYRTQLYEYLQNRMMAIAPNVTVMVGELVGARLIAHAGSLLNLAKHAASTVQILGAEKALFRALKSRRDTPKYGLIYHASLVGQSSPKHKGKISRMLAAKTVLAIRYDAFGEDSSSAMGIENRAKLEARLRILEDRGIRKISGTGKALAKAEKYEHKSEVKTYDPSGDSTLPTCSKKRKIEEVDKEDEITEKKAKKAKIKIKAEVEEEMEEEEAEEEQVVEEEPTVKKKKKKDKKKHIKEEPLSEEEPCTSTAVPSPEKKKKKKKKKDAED", "experiment": "co-IP; co-IP of endogenous NOP58 in nucleoli fractionated from livers of WT and Bmal1-KO mice; western blot", "note": "Results are given in words; binding and its absence hold for the method and conditions named. Binding seen in cells or lysates may run through a third protein. Some entries that bind do so weakly or less than the wild type."}
{"binder": "B1", "values": [{"measurement": "binding", "value": "binds"}]}
